Measurements from paper PMC6996959.
Results are given in words; binding and its absence hold for the method and conditions named. In cells and extracts the contact can be indirect. Some results given as binding are weak or reduced against the parent protein; the word gives no strength.

Amino acid sequences for entries named in this document (tags omitted).
UniProt Q9QZL0: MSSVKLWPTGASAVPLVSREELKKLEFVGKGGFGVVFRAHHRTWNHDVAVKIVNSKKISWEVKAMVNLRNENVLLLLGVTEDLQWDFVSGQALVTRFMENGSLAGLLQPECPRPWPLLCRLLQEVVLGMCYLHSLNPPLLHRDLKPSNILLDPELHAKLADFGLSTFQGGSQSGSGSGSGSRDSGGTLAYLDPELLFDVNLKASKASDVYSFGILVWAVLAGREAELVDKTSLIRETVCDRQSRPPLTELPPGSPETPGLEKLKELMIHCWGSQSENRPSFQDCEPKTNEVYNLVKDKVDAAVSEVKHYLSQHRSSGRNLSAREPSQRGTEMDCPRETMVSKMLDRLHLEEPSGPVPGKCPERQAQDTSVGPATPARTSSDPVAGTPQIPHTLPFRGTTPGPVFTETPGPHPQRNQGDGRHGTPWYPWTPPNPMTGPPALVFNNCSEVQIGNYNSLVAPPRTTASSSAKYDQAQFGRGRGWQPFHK

Molecular target: p62/SQSTM1 (endogenous, mouse heart) (mouse (endogenous in mouse heart)) (UniProt Q64337)
Test: co-IP; co-immunoprecipitation from young and aged mouse hearts, sham, ischemia (30 min) or ischemia followed by 4 hr of reperfusion; also from aged hearts after Nec-1, Ad-sh-p62 or metformin and from RIP3 KO hearts; which protein was precipitated is not told in the text shown

binding: binds
Substance: receptor-interacting protein kinase 3 (endogenous, mouse heart) (from UniProt Q9QZL0 1-486)
